Results as given in paper PMC12398534.

Molecular target: T1, PPP1R3B (human (endogenous in FaDu or 5-8F cells)) (UniProt Q86XI6)
T1 sequence: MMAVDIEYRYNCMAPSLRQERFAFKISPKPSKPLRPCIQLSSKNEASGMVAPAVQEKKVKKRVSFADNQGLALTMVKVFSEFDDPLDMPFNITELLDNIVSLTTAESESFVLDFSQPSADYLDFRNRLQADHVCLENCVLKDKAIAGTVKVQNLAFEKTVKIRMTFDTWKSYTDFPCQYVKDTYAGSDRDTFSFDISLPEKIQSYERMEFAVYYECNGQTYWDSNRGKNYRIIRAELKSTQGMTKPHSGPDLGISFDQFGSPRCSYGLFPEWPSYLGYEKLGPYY
Experiment: co-IP; cell lysates incubated with AminoLink resin coupled to antibodies against PPP1R3B, PP1C or PHKG2; eluates analysed by Western blotting; cells with different PHKG2 expression levels

PP1C (human (endogenous in FaDu or 5-8F cells)) (enzyme)
binding: binds

No constants are given. Whether binding was seen depends on the method and setting. Binding seen in cells or lysates may run through a third protein. Binding calls can cover weak binding; strength is not graded here.
